Measurements from publication PMC4703059.
Results are given in words; binding and its absence hold for the method and conditions named. Some binding calls cover weakened binding; strength is not graded here. For some of these results: Where a sequence is shown, tags or fusion partners need not be part of it. Blank lines part the entries; values can stand above or below the binder they belong to.

Columns and labels:
[1] = target: Lst4 longin domain from K. lactis (aa58-226) (Kluyveromyces lactis) (UniProt Q6CXP4); assay: AUC; Beckman-Coulter XL-1, 40 000 rcf, 20°C, 300 absorbance scans, fitted with SEDFIT; both purified
[2] = target: T1, Sec24 (LexA DNA binding domain fusion, pLexPD) (UniProt P40482); assay: two-hybrid; Lst7 as prey in pACT2 (GAL activation domain); Lst4, its truncations and COPII coat genes as bait in pLexPD (LexA DNA binding domain); L40 reporter strain; serial dilutions spotted on plates with and without histidine; LacZ beta-galactosidase assay as second reporter
T1 sequence: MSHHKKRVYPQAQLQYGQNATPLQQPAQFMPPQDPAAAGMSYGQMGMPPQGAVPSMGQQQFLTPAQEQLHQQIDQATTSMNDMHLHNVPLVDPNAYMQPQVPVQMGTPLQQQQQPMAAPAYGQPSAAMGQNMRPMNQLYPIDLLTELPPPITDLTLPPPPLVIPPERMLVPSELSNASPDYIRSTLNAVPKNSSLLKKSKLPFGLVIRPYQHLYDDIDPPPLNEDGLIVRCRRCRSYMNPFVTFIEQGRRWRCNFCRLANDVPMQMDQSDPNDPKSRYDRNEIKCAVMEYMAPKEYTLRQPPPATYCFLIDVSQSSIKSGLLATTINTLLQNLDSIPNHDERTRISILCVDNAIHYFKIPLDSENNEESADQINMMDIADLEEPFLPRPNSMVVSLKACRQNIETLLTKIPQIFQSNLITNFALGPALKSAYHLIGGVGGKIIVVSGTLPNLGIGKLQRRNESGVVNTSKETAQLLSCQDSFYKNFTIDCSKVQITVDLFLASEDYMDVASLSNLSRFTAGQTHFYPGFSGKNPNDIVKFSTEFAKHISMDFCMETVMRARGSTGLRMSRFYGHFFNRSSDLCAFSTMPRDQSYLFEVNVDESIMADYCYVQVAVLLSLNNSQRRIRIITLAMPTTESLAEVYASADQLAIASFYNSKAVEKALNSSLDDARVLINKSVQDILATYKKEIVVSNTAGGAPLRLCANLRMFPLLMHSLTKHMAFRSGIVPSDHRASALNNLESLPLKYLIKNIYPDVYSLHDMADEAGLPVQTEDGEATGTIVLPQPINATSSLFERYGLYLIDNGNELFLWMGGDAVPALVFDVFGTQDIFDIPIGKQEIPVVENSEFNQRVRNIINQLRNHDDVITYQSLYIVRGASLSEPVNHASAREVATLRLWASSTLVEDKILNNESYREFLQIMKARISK

[3] = target: T2, Sec23 (LexA DNA binding domain fusion, pLexPD) (UniProt P15303); assay: as above
T2 sequence: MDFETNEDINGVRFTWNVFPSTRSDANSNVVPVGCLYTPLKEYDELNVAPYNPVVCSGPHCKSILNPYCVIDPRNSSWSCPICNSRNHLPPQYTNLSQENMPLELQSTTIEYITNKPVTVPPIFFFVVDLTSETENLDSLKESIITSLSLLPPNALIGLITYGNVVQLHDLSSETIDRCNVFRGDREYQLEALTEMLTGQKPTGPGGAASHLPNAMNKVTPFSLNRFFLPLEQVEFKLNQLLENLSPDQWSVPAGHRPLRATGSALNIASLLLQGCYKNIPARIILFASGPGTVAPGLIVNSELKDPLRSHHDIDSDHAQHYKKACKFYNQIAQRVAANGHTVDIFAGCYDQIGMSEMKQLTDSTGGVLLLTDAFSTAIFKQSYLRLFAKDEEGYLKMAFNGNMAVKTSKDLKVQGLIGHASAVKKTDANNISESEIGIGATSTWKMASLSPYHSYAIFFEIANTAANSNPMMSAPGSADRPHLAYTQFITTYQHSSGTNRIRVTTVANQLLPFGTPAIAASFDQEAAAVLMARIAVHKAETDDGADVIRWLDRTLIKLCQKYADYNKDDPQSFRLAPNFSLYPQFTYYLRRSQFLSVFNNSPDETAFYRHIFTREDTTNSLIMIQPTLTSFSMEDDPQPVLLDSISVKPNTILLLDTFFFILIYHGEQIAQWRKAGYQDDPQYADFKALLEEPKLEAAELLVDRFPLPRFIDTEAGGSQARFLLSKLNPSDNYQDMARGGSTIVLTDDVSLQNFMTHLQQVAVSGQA

[4] = target: T3, Lst4 (LexA DNA binding domain fusion, pLexPD) (S. cerevisiae) (UniProt P34239); assay: as above
T3 sequence: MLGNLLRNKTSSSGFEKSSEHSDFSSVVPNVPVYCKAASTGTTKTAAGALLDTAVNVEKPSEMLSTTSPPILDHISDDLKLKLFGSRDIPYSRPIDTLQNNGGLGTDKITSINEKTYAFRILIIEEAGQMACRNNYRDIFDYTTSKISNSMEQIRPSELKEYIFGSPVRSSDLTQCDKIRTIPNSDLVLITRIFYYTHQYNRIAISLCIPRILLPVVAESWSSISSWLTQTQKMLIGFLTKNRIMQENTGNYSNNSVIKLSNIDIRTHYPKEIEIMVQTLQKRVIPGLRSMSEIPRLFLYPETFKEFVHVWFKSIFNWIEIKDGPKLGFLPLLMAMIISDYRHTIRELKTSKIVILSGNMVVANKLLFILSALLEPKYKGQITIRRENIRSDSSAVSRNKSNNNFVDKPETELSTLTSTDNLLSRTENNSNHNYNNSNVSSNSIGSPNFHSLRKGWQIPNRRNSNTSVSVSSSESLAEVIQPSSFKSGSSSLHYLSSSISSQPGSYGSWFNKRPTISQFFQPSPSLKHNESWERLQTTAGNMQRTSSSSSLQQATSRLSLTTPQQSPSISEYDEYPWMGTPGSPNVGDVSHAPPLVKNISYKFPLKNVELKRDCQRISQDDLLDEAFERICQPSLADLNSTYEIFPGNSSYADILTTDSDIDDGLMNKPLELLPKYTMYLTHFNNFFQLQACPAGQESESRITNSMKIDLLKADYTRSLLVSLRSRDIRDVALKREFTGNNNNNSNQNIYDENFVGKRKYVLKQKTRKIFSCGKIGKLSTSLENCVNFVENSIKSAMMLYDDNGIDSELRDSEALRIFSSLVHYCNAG

binding [1]: no binding
B1: Lst4 longin domain from K. lactis (aa58-226) (domain or fragment, UniProt Q6CXP4 58-226)
chain: NDRLHNGGFRLIISQELGHVTSRNNYQVVLDHSSVNFHTGAHIPLNELKDYIFGSSIRTIDYSASSDKIKVVKSANIVLFTRIFYLNEKSTLRIAISCCVTDDVLPVLTECWPHISSFLDQCENTLLKYLAKNDTQFLPHDWKARNCIEVAAVLQTFQRKIIPLLSGYS

binding [2]: binds weakly | binding [3]: binds weakly | binding [4]: binds
B2: Lst7 (GAL activation domain fusion, pACT2) (protein, UniProt P53237 1-242)
chain: MSSTVISLAHFCDKHGPRIISVTQSAEKGTLGEELLVPDYPTESYCESCLLQFPEESTRSMRCFIEDVPFITTQYSSIRYQLLNSIIKRAFSEETMIYDNMPFIFFDDLRGLNLVIGFKLYDENARGNERRYCFILTVDSRSHDDSMKMLSEHWNFIIGGFDKMIAYIKNIHKSEFLGKNKTVENNLETLNNNAFIGSYLRANKSKFGRNLVSLTDDKFLFVRIHKWNSFLLHTVMNENKLP
